Data taken from patent US20060189528A1.
Changes are numbered by the printed parent chain. Numbers in names are those of the source. No constants are given. Whether binding was seen depends on the method and setting. Some entries that bind do so weakly or less than the wild type. For part of these data: Where a sequence is shown, tags or fusion partners need not be part of it.

T1: RANKL (human) (UniProt O14788)
T1 sequence (looked up): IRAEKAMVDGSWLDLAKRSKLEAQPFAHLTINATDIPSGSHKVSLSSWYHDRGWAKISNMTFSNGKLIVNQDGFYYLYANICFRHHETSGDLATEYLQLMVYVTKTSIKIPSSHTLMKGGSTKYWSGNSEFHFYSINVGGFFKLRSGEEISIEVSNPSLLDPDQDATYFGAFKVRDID

B1: OVP I115D (Fc fusion, not shown: a dimerising Fc or GST; small tags and cut ends)
chain: ETFPPKYLHYDEETSHQLLCDKCPPGTYLKQHCTAKWKTVCAPCPDHYYTDSWHTSDECLYCSPVCKELQYVKQECNRTHNRVCECKEGRYLEDEFCLKHRSCPPGFGVVQAGTPERNTVCKRCPDGFFSNETSSKAPCRKHTNCSVFGLLLTQKGNATHDNICSGNSESTQK
B2: OVP I115G (Fc fusion, not shown: a dimerising Fc or GST; small tags and cut ends)
chain: B1 chain with D94G
B3: OVP I115M (Fc fusion, not shown: a dimerising Fc or GST; small tags and cut ends)
chain: B1 chain with D94M
B4: OVP I115N (Fc fusion, not shown: a dimerising Fc or GST; small tags and cut ends)
chain: B1 chain with D94N
B5: OVP I115E (Fc fusion, not shown: a dimerising Fc or GST; small tags and cut ends)
chain: B1 chain with D94E
B6: OPG(22-194).Fc wild type (Fc fusion, not shown: a dimerising Fc or GST; small tags and cut ends)
chain: B1 chain with D94I
B7: OVP I115M, R122G (Fc fusion, not shown: a dimerising Fc or GST; small tags and cut ends)
chain: B1 chain with D94M, R101G
B8: OVP I115T, K51R, R111H (Fc fusion, not shown: a dimerising Fc or GST; small tags and cut ends)
chain: B1 chain with K30R, R90H, D94T
B9: OVP I115A (Fc fusion, not shown: a dimerising Fc or GST; small tags and cut ends)
chain: B1 chain with D94A
B10: OVP I115L (Fc fusion, not shown: a dimerising Fc or GST; small tags and cut ends)
chain: B1 chain with D94L
B11: OVP I115S (Fc fusion, not shown: a dimerising Fc or GST; small tags and cut ends)
chain: B1 chain with D94S
B12: OVP I115R (Fc fusion, not shown: a dimerising Fc or GST; small tags and cut ends)
chain: B1 chain with D94R

The binders below were run against T1, RANKL (human) (assay: ELISA (Table 1), Fc-linked dimer).

binding, binds:
B1, B2, B3, B4, B5

These binders were tested against T1, RANKL (human) (assay: ELISA on coated RANKL, Fc-linked dimer).

binding, binds:
B6

What follows are binders tested against T1, RANKL (human) (assay: ELISA, wells coated with RANKL at 5 ug/mL, dimeric Fc-linked protein in doubling dilutions from about 10 nM, anti-FLAG detection, A450nm).

binding, binds:
B6, B7, B8, B9, B10, B1, B2, B11, B12
